Source: PubChem BioAssay AID1259354 (Paczesny and Yang Labs, IUPUI and University of Michigan, 2018)
The whole screen tested about 78,000 compounds, of which about 1,800 (2.3%) were called active. Inconclusive means that the source gave no clear call. Such entries were picked first, then a sample of the others. Rule as the data show it: active = inhibition above about 30%; inconclusive = mostly about 10% to 28%; inactive = weaker than that.

Protein sequences, listed by entry. Tags and fused reporters are not part of them. Lines headed by an entry give the natural chain unless they say otherwise; changes in a name come on top.
UniProt Q01638: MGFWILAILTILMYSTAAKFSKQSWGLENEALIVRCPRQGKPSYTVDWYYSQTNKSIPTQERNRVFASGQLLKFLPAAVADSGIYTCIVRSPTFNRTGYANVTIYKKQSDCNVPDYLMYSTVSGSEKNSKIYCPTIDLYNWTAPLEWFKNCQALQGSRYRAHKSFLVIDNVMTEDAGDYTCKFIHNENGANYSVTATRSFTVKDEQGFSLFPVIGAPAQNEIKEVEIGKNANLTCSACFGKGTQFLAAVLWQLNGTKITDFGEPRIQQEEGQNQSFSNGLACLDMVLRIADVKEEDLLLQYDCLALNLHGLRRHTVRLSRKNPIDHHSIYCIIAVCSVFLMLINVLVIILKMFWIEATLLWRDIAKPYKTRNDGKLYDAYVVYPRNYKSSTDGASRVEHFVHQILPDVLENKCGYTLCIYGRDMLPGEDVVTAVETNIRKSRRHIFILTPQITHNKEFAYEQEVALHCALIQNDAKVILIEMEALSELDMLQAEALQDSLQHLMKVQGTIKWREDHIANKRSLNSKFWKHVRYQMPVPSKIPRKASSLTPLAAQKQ

What follows are compounds tested against Interleukin-1 receptor-like 1 (Homo sapiens) (UniProt Q01638) (assay: blocks human ST2 binding to IL-33, primary screen, biochemical, AlphaLISA (AID 1259354)). Conditions: AlphaLISA ST2-Fc/biotin-IL-33 interaction, 1 h; at 17 µM, active compounds read high.
For `CCN1CCCC1CN(CC1CCN(CCOC)CC1)C(=O)c1cccc(OC)c1` (configuration not stated), the inhibition was inconclusive: 10%.
In the case of `O=C(NC1CCCC1)c1ccc(NC(=O)C2CCCO2)cc1` (configuration not stated), the inhibition is reported as “inactive”.
For `CCOc1ccc(C2CC(c3c(F)cccc3Cl)n3nc(N)nc3N2)cc1` (configuration not stated), the inhibition was inconclusive: 17%.
For `O=C(CSc1nc2c(cnn2-c2ccc(F)cc2)c(=O)[nH]1)Nc1ccc(Br)cc1`, the inhibition was inconclusive: 18%.
`O=C(CCCc1cn[nH]c1)NC1CC(=O)N(Cc2ccc(F)cc2)C1` (configuration not stated) was tested, and the inhibition was inconclusive: 10%.
`Cc1ccc(CSc2nc3c(c(=O)n2-c2ccc(F)cc2)SCC3)cc1` was tested, and the inhibition was inconclusive: 11%.
`O=C(CN1C(=O)/C(=C\c2ccc(C(F)(F)F)cc2)Sc2ccccc21)NCCN1CCCC1` was tested, and the inhibition was active: 39%.
In the case of `Cn1c(-c2ccc(-c3nccn3CCn3cccn3)o2)nc2ccccc21`, the inhibition is reported as inconclusive: 15%.
In the case of `O=C(Cn1c(=O)c2sccc2n(Cc2ccccc2F)c1=O)NCCc1ccccc1`, the inhibition is reported as inconclusive: 17%.
In the case of `O=C(CCc1ccccc1)N1CCc2ccccc21`, the inhibition is reported as “inactive”.
For `CCc1nc(CN2CCCC(CCC(=O)Nc3ccc(OC)c(Cl)c3)C2)c(C)[nH]1` (configuration not stated), the inhibition was “inactive”.
With `CSc1nccc(-c2c(C)cc(C)cc2C)n1` the inhibition was “inactive”.
`COCCCNc1c2c(nc3ccccc13)CCC2` was tested, and the inhibition was inconclusive: 26%.
For `O=C(Nc1cccc2ccccc12)O[C@@H]1CO[C@H]2[C@@H]1OC[C@@H]2n1nnnc1-c1ccc(-c2ccccc2)cc1`, the inhibition was inconclusive: 17%.
For `Cc1nc(N2CCC(NC3CCCc4ccccc43)CC2)nc2ccc(F)cc12` (configuration not stated), the inhibition was “inactive”.
`O=C(COc1ccccc1)Nc1ccc(I)cc1` was tested, and the inhibition was inconclusive: 17%.
In the case of `CCCCN(CC)C(=O)c1ccccc1F`, the inhibition is reported as inconclusive: 11%.
With `CNCc1cc(/C=C/c2ccccc2)ccc1OC` the inhibition was inconclusive: 17%.
With `COCCNC(=O)c1cc2cc3ccc(Cl)cc3nc2o1` the inhibition was “inactive”.
For `CCN(Cc1ccccc1)S(=O)(=O)c1ccc([N+](=O)[O-])cc1`, the inhibition was inconclusive: 25%.
With `CCCCNC(=O)c1cc2cc3ccc(OC)cc3nc2s1` the inhibition was inconclusive: 20%.
For `N#C/C(=C\c1ccccc1)c1nc2ccccc2[nH]1`, the inhibition was inconclusive: 20%.
`O=C1Nc2ccc(Br)cc2C(=O)N2CCN(C(=O)c3ccccc3)C[C@H]12` was tested, and the inhibition was “inactive”.
For `N=Nc1[nH]c(N)c2ccccc12`, the inhibition was active: 46%.
In the case of `COC(=O)c1cc2n(n1)CCCN(C(=O)c1cnnn1-c1ccccc1)C2`, the inhibition is reported as inconclusive: 11%.
With `O=C(Nc1ccc(S(=O)(=O)Nc2nccs2)cc1)c1ccccc1` the inhibition was “inactive”.
In the case of `O=c1[nH]c2cnccc2n1Cc1ccccc1`, the inhibition is reported as inconclusive: 12%.
For `Cc1cc(Cl)ccc1Nc1nc(-c2ccc([N+](=O)[O-])cc2)nc2ccccc12`, the inhibition was inconclusive: 11%.
`CCOc1ccc(N2CN=c3s/c(=C/c4cccs4)c(=O)n3C2)cc1` was tested, and the inhibition was “inactive”.
`CC(C)C(NS(=O)(=O)c1cccs1)C(=O)Nc1ccc(Br)cc1` (configuration not stated) was tested, and the inhibition was “inactive”.
`CCCCN(Cc1ccc(F)cc1)C(=O)CNC(=O)N(C)C` was tested, and the inhibition was inconclusive: 10%.
In the case of `COc1ccc2cc3cc(C(=O)NCCC(C)C)oc3nc2c1`, the inhibition is reported as inconclusive: 12%.
In the case of `O=C(O)c1cc(-c2cccc3c2OCC3)cc(S(=O)(=O)N2CCCC2)c1`, the inhibition is reported as “inactive”.
With `O=C(c1csc(Cc2ccccc2)n1)N1CC(c2ccncc2)C1` the inhibition was inconclusive: 18%.
For `CCC(C)NC(=O)C1CCN(S(=O)(=O)c2cccs2)CC1` (configuration not stated), the inhibition was inconclusive: 20%.
With `COC(=O)c1cccc(C(=O)NC(C)c2cnn(-c3ccccc3C)c2C)c1` (configuration not stated) the inhibition was inconclusive: 12%.
In the case of `COC(=O)c1cccc(NC(=S)N[C@H]2CO[C@H]3[C@@H]2OC[C@@H]3n2cc(-c3ccccc3)nn2)c1`, the inhibition is reported as inconclusive: 10%.
For `Cc1cccn2c(=O)c(C=NCCO)c(NCc3ccccc3)nc12`, the inhibition was “inactive”.
For `Cc1ccc(OCc2cc(=O)n3oc(C)cc3n2)c(NC(=O)c2ccccc2Br)c1`, the inhibition was “inactive”.
For `C[C@@H]1Oc2c(c(O)c3c(c2C(CC(=O)O)c2ccccc2)OC(C)(C)C=C3)C(=O)[C@H]1C` (some centres not stated), the inhibition was inconclusive: 18%.
In the case of `O=C(N[C@H]1C[C@H]2C(=O)NC[C@@H](CCC(=O)N3CCN(c4ccccn4)CC3)N2C1)c1cccs1`, the inhibition is reported as active: 33%.
`Cc1nnsc1CN(C)Cc1nc2ccccc2n1C(C)C` was tested, and the inhibition was inconclusive: 19%.
For `O=C(Nc1ccccc1NC(=O)c1cccs1)c1cccs1`, the inhibition was inconclusive: 10%.
With `O=C(O)CN=C(NS(=O)(=O)c1ccccc1)c1ccc(F)cc1` the inhibition was “inactive”.
With `Cc1n[nH]c(C)c1CC(=O)N1CCC(c2[nH]ncc2-c2ccccc2)CC1` the inhibition was inconclusive: 15%.
In the case of `C[C@@H]1CN(c2nc3nonc3nc2NCc2ccccc2)C[C@H](C)O1`, the inhibition is reported as inconclusive: 17%.
With `Cc1ccc(NC(=O)Cn2c(-c3ccc4c(c3)OCO4)cn(-c3ccccc3)c2=O)cc1C` the inhibition was inconclusive: 16%.
In the case of `Cc1cccc(C(=O)Nc2ccc(I)cc2)c1`, the inhibition is reported as inconclusive: 10%.
`O=C(Nc1c(-c2ccccc2)nc2ccccn12)c1ccccc1Cl` was tested, and the inhibition was “inactive”.
With `Cc1ncsc1CCCNS(=O)(=O)NCc1ccccc1` the inhibition was inconclusive: 13%.
In the case of `C[C@@H]1CC[C@@]2(C)C(CO)=CCC[C@@H]2[C@@]1(C)CC/C(=C/C(=O)O)CO`, the inhibition is reported as active: 36%.
In the case of `COC(=O)C1C(=O)C2=C(CC1C)NC(C)=C(C(=O)OC1CCCCC1)C2c1ccccc1OC` (configuration not stated), the inhibition is reported as “inactive”.
In the case of `O=C(c1cc2c(=O)oc3ccccc3c2s1)N1CCN(c2cccc(Cl)c2)CC1`, the inhibition is reported as inconclusive: 12%.
In the case of `O=C(Cn1ccc2ccccc2c1=O)NCC(=O)Nc1nc2ccccc2s1`, the inhibition is reported as inconclusive: 12%.
`COc1ccc(C(=O)O/N=C2/C(=O)N(C)c3ccccc32)cc1OC` was tested, and the inhibition was inconclusive: 15%.
In the case of `COC(=O)C1=NNC(C(=O)c2ccccc2)C1c1ccc(C)cc1` (configuration not stated), the inhibition is reported as “inactive”.
With `Cc1cccn2cc(C(=O)NCc3cccnc3N(C)C)nc12` the inhibition was inconclusive: 17%.
`O=C(c1ccc(Br)o1)N(C1CCCCC1)C1CCCCC1` was tested, and the inhibition was inconclusive: 26%.
For `O=C(Nc1ccccc1C(=O)O)c1cccc(S(=O)(=O)N2CCOCC2)c1`, the inhibition was “inactive”.
`Cc1ccc(N2C(=O)C3CC=CCC3C2=O)cc1C` (configuration not stated) was tested, and the inhibition was inconclusive: 18%.
In the case of `O=C(O)c1ccc(CSc2nc3ccccc3o2)cc1`, the inhibition is reported as inconclusive: 11%.
For `Cc1cc(OCC(N)=O)c2c(-c3ccccc3)cc(=O)oc2c1`, the inhibition was inconclusive: 16%.
In the case of `O=C1OC(Cc2ccccc2Cl)c2cc[nH]c(=O)c21` (configuration not stated), the inhibition is reported as inconclusive: 25%.
`Fc1cccc(-c2nc(CNc3ncc(Cl)cn3)[nH]c2-c2ccccn2)c1` was tested, and the inhibition was inconclusive: 27%.
For `Cc1cc(C)nc(N=C(NC(=O)COc2ccc(Cl)cc2)Nc2ccccc2)n1`, the inhibition was “inactive”.
`O=C(c1c(F)cccc1F)N1CCN(S(=O)(=O)c2cc3c4c(c2)CCN4C(=O)CC3)CC1` was tested, and the inhibition was inconclusive: 10%.
In the case of `CCN(CC)c1ccc2cc(C(N)=O)c(=Nc3ccccc3C)oc2c1`, the inhibition is reported as inconclusive: 26%.
With `Cc1ccc([N+](=O)[O-])cc1N=Cc1ccc([N+](=O)[O-])o1` the inhibition was inconclusive: 15%.
In the case of `Cc1ccc(-c2nnc(-c3nc(NCc4ccc(F)cc4)c4ccccc4n3)o2)cc1`, the inhibition is reported as inconclusive: 10%.
With `CNC(=O)c1ccc(OC)c(-c2cc(F)ccc2C)c1` the inhibition was “inactive”.
With `CCS(=O)(=O)N1N=C(c2ccc(C)cc2)CC1c1cc2ccc(OC)cc2nc1Cl` (configuration not stated) the inhibition was inconclusive: 25%.
With `Ic1ccc(-c2csc(Nc3ccc4c(c3)OCO4)n2)cc1` the inhibition was “inactive”.
For `CCCOc1ccc(C(N)CC(=O)O)cc1` (configuration not stated), the inhibition was “inactive”.
In the case of `COCc1nc(CNC2CCCC(C)(C)C2)no1` (configuration not stated), the inhibition is reported as “inactive”.
In the case of `CC(=O)N1N=C(c2ccc(C)cc2)OC12CCCCCC2`, the inhibition is reported as “inactive”.
In the case of `Cc1ccccc1OCCN1C(=O)c2ccccc2C1=O`, the inhibition is reported as inconclusive: 10%.
For `O=C(CCC1=NS(=O)(=O)c2ccccc2N1)Nc1ccc(F)c(F)c1`, the inhibition was “inactive”.
With `COCC(=O)Nc1ccc(-c2noc([C@@H]3CCCN3Cc3ncc[nH]3)n2)cn1` the inhibition was inconclusive: 14%.
For `COc1cc(NC(=O)CSc2ccccc2)c(OC)cc1Cl`, the inhibition was “inactive”.
For `COc1ccc(/C=C/c2nc3sc4c(c3c(=O)o2)CCCC4)cc1`, the inhibition was inconclusive: 22%.
For `CC1=C(C(=O)Nc2nc3ccccc3s2)C(c2cccnc2)C2=C(CC(C)(C)CC2=O)N1` (configuration not stated), the inhibition was inconclusive: 12%.
In the case of `COc1ccc(-c2cc3c(n(C)c2=O)CCN(C(=O)c2cc(C(F)(F)F)[nH]n2)C3)c2ccc(C)nc12`, the inhibition is reported as inconclusive: 16%.
With `Cc1ccc(C(C)(C)C)c(OCCN2CCN(C)CC2)c1` the inhibition was “inactive”.
`Cc1ccccc1Cn1c(C)cc(C)c(C#N)c1=O` was tested, and the inhibition was inconclusive: 10%.
In the case of `COc1c(F)cc(CN2CCC(n3cc(CO)nn3)CC2)cc1F`, the inhibition is reported as “inactive”.
For `O=C(c1ccc(F)c(F)c1)N1CCN(c2cc(N3CCCC3)c(F)cc2[N+](=O)[O-])CC1`, the inhibition was inconclusive: 10%.
`CC(=O)c1ccc(N2CCN(S(=O)(=O)c3cccc4cccnc34)CC2)cc1` was tested, and the inhibition was inconclusive: 10%.
For `CCCCN(CC)S(=O)(=O)c1ccc2[nH]c(=O)cc(C(=O)O)c2c1`, the inhibition was “inactive”.
In the case of `COc1ccc(/C=C/c2nc(=O)c(-c3ccccc3)c(C)o2)cc1`, the inhibition is reported as inconclusive: 23%.
`NC(=O)NC(CC(=O)O)c1ccccc1` (configuration not stated) was tested, and the inhibition was “inactive”.
With `O=C(NC1CCCCC1)c1noc2c1CCc1ccccc1-2` the inhibition was “inactive”.
In the case of `Cc1cccc(N2CC(C(=O)Nc3ccc4c(c3)OCO4)CC2=O)c1C` (configuration not stated), the inhibition is reported as inconclusive: 16%.
For `N#Cc1nc(COc2ccccc2F)oc1N1CCC(C(N)=O)CC1`, the inhibition was inconclusive: 19%.
With `CCOCCOC(=O)C1=C(C)NC2=C(C(=O)C(C(=O)OC)C(C)C2)C1c1ccc(F)cc1` (configuration not stated) the inhibition was “inactive”.
In the case of `Cc1sc2ncnc(SCC(=O)Nc3sc4c(c3C#N)CCC4)c2c1C`, the inhibition is reported as inconclusive: 14%.
For `COC(=O)[C@@H]1Cc2ncn(Cc3ccc(Cl)cc3)c2CN1Cc1ccc(C(=O)O)cc1`, the inhibition was “inactive”.
`COc1cccc(NC(=O)C2CC(=O)NC(Nc3nc4ccccc4s3)=N2)c1` (configuration not stated) was tested, and the inhibition was inconclusive: 10%.
